Four molecules from paper doi:10.1101/2023.03.07.531564 can be followed below.

The chains behind the UniProt entries cited, without tags or fusion partners.
UniProt P46938: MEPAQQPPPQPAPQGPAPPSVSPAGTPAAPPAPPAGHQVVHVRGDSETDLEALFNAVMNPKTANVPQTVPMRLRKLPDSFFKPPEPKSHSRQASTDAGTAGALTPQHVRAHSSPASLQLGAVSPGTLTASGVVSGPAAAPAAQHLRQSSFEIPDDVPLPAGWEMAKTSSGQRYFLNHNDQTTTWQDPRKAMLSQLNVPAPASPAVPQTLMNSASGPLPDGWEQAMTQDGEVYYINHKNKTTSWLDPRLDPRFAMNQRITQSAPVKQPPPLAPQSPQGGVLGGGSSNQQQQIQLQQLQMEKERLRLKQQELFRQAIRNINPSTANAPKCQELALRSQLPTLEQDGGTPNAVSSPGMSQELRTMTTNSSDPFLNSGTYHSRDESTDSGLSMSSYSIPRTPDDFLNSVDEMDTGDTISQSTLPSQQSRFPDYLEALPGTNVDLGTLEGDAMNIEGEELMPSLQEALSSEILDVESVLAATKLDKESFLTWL
UniProt Q9EPK5: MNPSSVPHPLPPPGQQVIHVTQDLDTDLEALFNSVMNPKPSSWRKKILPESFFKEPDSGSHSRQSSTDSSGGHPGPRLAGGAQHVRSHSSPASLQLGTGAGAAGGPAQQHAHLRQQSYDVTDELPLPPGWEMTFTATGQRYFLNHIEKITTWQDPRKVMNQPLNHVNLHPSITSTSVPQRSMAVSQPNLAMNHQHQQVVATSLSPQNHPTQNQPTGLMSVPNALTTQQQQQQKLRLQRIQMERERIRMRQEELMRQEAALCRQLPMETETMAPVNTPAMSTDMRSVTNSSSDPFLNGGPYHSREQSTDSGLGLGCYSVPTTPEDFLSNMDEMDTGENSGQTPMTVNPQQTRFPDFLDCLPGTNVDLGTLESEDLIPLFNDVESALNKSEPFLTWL

No constants are given. Whether binding was seen depends on the method and setting. Binding seen in cells or lysates may run through a third protein. These calls come from enrichment with a bait or labelling near it, and not all partners need be listed.

B1: NUP133 (protein, UniProt Q8R0G9 1-1155)
chain: MFPSVSSPRTPGPGTRRGPLVGIGPTSTPRASRRGLSLGSAVNSPVLFSPAGRRSSVSSRGTPTRIFPHHSISESVNYDVRVFGSSLPVKIMEALTMAEADEQLSVHVDEGGWACLVCTEKLLIWKIAVSPVTKLSVCKELQLPPSDFHGSADLVALSYAATSGEVHSVQAVSVMVATKEGSIRYWPSLAREDTYSDTCVDLGGEKMCRFLTAVQGGSFILSSVGSQLVRLIPESSGKIHQHVLPQGQGMLSGIGRRVSSLFGILSPTSDLMLASVLWDRGGSSFYTLTSSNISKWELDDSSEKQVHSWDVHRTLKESITDAVWGSESNYEAIKEGVNIQYLDLKQNCDGLLILAAAWHLGDSPCLVYYSVITVEDNGNQMSDAVTVEVTQYNPPFQSEDLIACRLMVPNFSSQMTYLYMENAVFVCSTGTGKFSLPQEKIVFDTQGDGILGAGSCAGVPILFSRNSGLVSVTPRENVSLLAEDLEESLTSSVGGRGSESMVFETTTKNETVAHEDKTKLLKAAFLQYCRKDLGRAQIMADELFSSHTDLDSDPELDKAVTQISVDLIDDYPASDPRWAESVPQEAPGLSNTSLIILHQLEDKMKAHCLLVDFLHQVGLFRRLSSYPIRGTPMSTRLLLCEHAEKLSAAITLKNHHSRLPDLVNSAILLALNKRECEVPNSLTPADVFFREVSQVDTICECLLEHEEQVLREVALVSQEWAEVAIDVNTVLKDMLQAATHYRLNKSSMYSQEEVLGKEPEYVPWTATSGPSGIRTAVMRQHGIILKMVYPQADSKLRNVVMEQLVALIDCFLDSYVSQLKSLEKSSDQERYSSLEVEYLQKRSELLSPLLTLGQYPWAASLAEKYCDFDILVQMCEQTDNQARLQRYMTQFADQNFSDFLFRWYLEKGKRGKLLSQPISQHGQLANFLQAHEHLSWLHEINSQELEKAHTTLLGLANMETRYFAKKKTLLGLSKLAALASDISEDRLQEKIEAMAEQERFLLHQETLPEQLLTERQLSLSAMPVLTAPQLISLYICDENRRANEYDFKKALDLLEYIDEEEDVSIDDLKLEILCRALQRDDWSGSDGKDDPIEVSKDSVFVKILQKLIKDGIQLSEYLPEVTDLLRAEQLGSLKSNSYFEFVLKANYEYYVQGQM
B2: XPO5 (protein, UniProt Q924C1 1-1204)
chain: MEMEQVNALCEELVKAVTVMMDPSSTQRYRLEALKFCEEFKEKCPICVPCGLKLAEKTQIAIVRHFGLQILEHVVKFRWNSMSRLEKVYLKNSVMELIANGTLRILEEENHIKDVLSRIVVEMIKREWPQHWPDMLMELDTLFRQGETQRELVMFILLRLAEDVVTFQTLPTQRRRDIQQTLTQNMERILNFLLNTLQENVNKYQQMKTDSSQEAEAQANCRVSVAALNTLAGYIDWVSLNHITAENCKLVETLCLLLNEQELQLGAAECLLIAVSRKGKLEDRKRLMILFGDVAMHYILSAAQTADGGGLVEKHYLFLKRLCQVLCALGNLLCALLALDANIQTPINFGMYLESFLAFTTHPSQFLRSSTHMTWGALFRHEVLSRDPALLAVIPKYLRASMTNLVKMGFPSKTDSPSCEYSRFDFDSDEDFNAFFNSSRAQHGEVVRCVCRLDPKTSFQMAAEWLKYQLSASIDTGPVNSCSTAGTGEGGFCSIFSPSYVQWEAMTFFLESVINQMFRTLDKEELPVSDGIELLQLVLNFEIKDPLVLSCVLTNVSALFPFVTYKPAFLPQVFSKLFSFVTFESVGESKAPRTRAVRNVRRHACSSINKMCRDYPDLVLPNFDMLYSHVKQLLSNELLLTQMEKCALMEALVLVSNQFKDYERQKLFLEELMAPVVNIWLSEEMCRALSDIDSFIAYVGADLKSCDPAVEDPCGLNRARMSFCVYSILGVMRRTSWPSDLEEAKAGGFVVGYTPSGNPIFRNPCTEQILRLLDNLLALVRTHNTLYTPEMLTKMAEPFTKALDIVESEKTAILGLPQPLLEFNDHPVYRTTLERMQRFFGILYENCYHILGKAGPSMQQDFYTVEDLASQLLGSAFVNLNNIPDFRLRSMLRVFVKPLVLFCPSEHYETLISPILGPLFTYLHMRLSQKWHVINQRSILCGEDEIAEDNPESQEMLEEQLVRMLTREAMDLIMACCVSKKTADHTAAPTADGDDEEMMATEVAPSSVVELTDLGKCLMKHEDVCTALLITAFNSLTWKDTLSCQRATTQLCWPLLKQVMSGTLLADAVTWLFTSVLKGLQMHGQHDGCMASLVHLAFQIYEALRPRYLEIRAVMEQIPEINKESLDQFDCKLLNPSLQKAADKRRKDHFKRLIAGCIGKPLGEQFRKEVHIKNLPWLFKKPKPMLETEVLDSEEGGLATIFEP
B3: NUP107 (protein, UniProt Q8BH74 1-926)
chain: MDRSGFGGMSSPVIRDAEVTRTARKHSAHKRVLIQANQEDNFGTATPRSQIIPRTPSSFRQPFVTPSSRSLLRHPDISYILGTEGRSPRHTQSSGYLGNLSMVTNLDDSNWAAAFSSQRLGLYTNTEHHSMTEDVNLSTVMLREDDPGEAASMSMFSDFLHSFLKHSSTTVFDLVEEYENICGSQVNILSKIVSRATPGLQKFSKTASMLWLLQQEMVTWRLLASLYRDRIQSSLEEENMFAIAGINASEKMVVETLFQRDSLVRQSQLVVDWLESIAKDEIGEFSDNIEFYAKSVYWENTLHSLKQRQLLSHMGSTRPLVTELDPDAPIRQKLPLDDLDREDEVRLLKYLFTLIRAGMTEEAQRLCKRCGQAWRAATLEGWKLYHDPNVNGGTELEPVEGNPYRRIWKISCWRMAEDELFNKYERAIYAALSGNLKQLLPVCDTWEDTVWAYFRVMVDSLVEQEIRTSVMTQDDSEELPREYMEANWTLEKVFEELQATDKKRVLEENQEHYHIVQKFLILGDVDGLMDEFSKWLSKSGSSLPGHLLRFMTHLILFLRTLGLQTKEEVSIEVLKTYIQLLISEKHTSLIAFYTCHLPQDLAVAQYALFLEGVTEFEQRHQCLELAKEADLDVATITKTVVENICKKDNGEFSHHDLAPSLDTGTTEEDRLKIDVIDWLVFDPAQRAEALRQGNAIMRKFLALKKHEAAKEVFVKIPQDSIAEIYNQWEEQGMESPLPAEDDNAIREHLCIRAYLEAHETFNEWFKHMNSAPQKPTLLSQATFTEKVAYEHREKKYEMDHNIWKGHLDALTADVKEKMYNVLLFVDGGWMVDVREDAEDDPERTHQMVLLRKLCLPMLCFLLHTILHSTGQYQECLQLADMVSSERHKLYLVFSKEELRKLLQKLRESSLMLLDQGLDPLGYEIQS
B4: large tumor suppressor kinase 1 (Lats1) (protein, UniProt Q8BYR2 1-1129)
chain: MKRGEKPEGYRQMRPKTFPASNYPGSSRQMLQEIRESLRNLSKPSDASKAEHNLNKMSTEDPRQVRNPPKFGTHHKALQEIRNSLLPFANETSSSRSPSEVNPQMFQDLQAAGFDEDMVIQALQKTNNRSIEAAVEFISKMSYQDPRREQMSAAAARPINATMKPGNVQHSINRKQSWKGSKESLVPQRHGPSLGENVVYRSESPNSQADVGRPLSGSGIAAFAQAHPSNGQRVNPPPPPQVRSVTPPPPPRGQTPPPRGTTPPPPSWEPSSQTKRYSGNMEYVISRISPVPPGAWQEGYPPPPLTTSPMNPPSQAQRAISSVPVGRQPIIMQSTSKFNFTPGRPGVQNGGGQSDFIVHQNVPTGSVTRQPPPPYPLTPANGQSPSALQTGASAAPPSFANGNVPQSMMVPNRNSHNMELYNINVPGLQTAWPQSSSAPAQSSPSGGHEIPTWQPNIPVRSNSFNNPLGSRASHSANSQPSATTVTAITPAPIQQPVKSMRVLKPELQTALAPTHPSWMPQPVQTVQPTPFSEGTASSVPVIPPVAEAPSYQGPPPPYPKHLLHQNPSVPPYESVSKPCKDEQPSLPKEDDSEKSADSGDSGDKEKKQITTSPITVRKNKKDEERRESRIQSYSPQAFKFFMEQHVENVLKSHQQRLHRKKQLENEMMRVGLSQDAQDQMRKMLCQKESNYIRLKRAKMDKSMFVKIKTLGIGAFGEVCLARKVDTKALYATKTLRKKDVLLRNQVAHVKAERDILAEADNEWVVRLYYSFQDKDNLYFVMDYIPGGDMMSLLIRMGIFPENLARFYIAELTCAVESVHKMGFIHRDIKPDNILIDRDGHIKLTDFGLCTGFRWTHDSKYYQSGDHPRQDSMDFSNEWGDPSNCRCGDRLKPLERRAARQHQRCLAHSLVGTPNYIAPEVLLRTGYTQLCDWWSVGVILFEMLVGQPPFLAQTPLETQMKVINWQTSLHIPPQAKLSPEASDLIIKLCRGPEDRLGKNGADEIKAHPFFKTIDFSSDLRQQSASYIPKITHPTDTSNFDPVDPDKLWSDGSEEENISDTLNGWYKNGKHPEHAFYEFTFRRFFDDNGYPYNYPKPIEYEYIHSQGSEQQSDEDDQHTSSDGNNRDLVYV

For one assay, the target named is 3xFLAG.YAP (flagged mouse Yap, Yes-associated protein) (mouse) (UniProt P46938). Put plainly: affinity purification with mass spectrometry.
Consider B1, for which the binding result is given as “binds”.

Take B2: the binding entry was “binds”.

In another assay the target is 3xFLAG.TAZ (flagged mouse Taz, WW-domain-containing transcription regulator 1) (mouse) (UniProt Q9EPK5). In words: affinity purification with mass spectrometry.
B3: the binding entry was “binds”.

B1: the binding entry is “binds”. On the same count and under the same terms, with B2 the entry was “binds”; with B4, “binds”.
